Reference: PubChem BioAssay AID1259254 (NCATS, 2017)

Screen: 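Genome-wide screen for genes that prevent DNA re-replication in cancer cells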 (primary screen)
Cell system: human HCT116 colorectal cancer cells
Reagents: single siRNA against human genes
Timing: 3 days
Measurement: 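Imaged Hoechst DNA stain sorts each cell into a cycle phase by DNA amount; per plate, G2 fraction set to 0% for non-targeting and 100% for GMNN siRNA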
Scale: G2 robust z-score and G2 cells, % of GMNN control: higher = more G2 cells, more excess DNA replication; raw share of cells in G2: higher = larger share of cells with G2 DNA content
Call rule: 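An siRNA counts as active if its G2 robust z-score lies at least 5 MADs above the screen median; here such calls match roughly 38% of GMNN control or more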
This is an unselected part of about 59,000 reagents tested. Of all reagents, about 1,550 (2.6%) are marked active. 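G2 share is only a proxy for re-replication; each gene was hit by three separate siRNAs, and active genes were retested.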 Raw values are not corrected between plates. Reagents against one gene are numbered here. Not given: the amount of reagent.

| target gene | siRNA no. | G2 robust z-score | G2 cells, % of GMNN control | raw share of cells in G2 (%) | Outcome |
| --- | --- | --- | --- | --- | --- |
| PLCB2 (phospholipase C beta 2) | 1 | -0.653 | -1.63 | 4.27 | inactive |
| PLCB2 (phospholipase C beta 2) | 2 | -1.06 | -4.49 | 2.95 | inactive |
| PLCB2 (phospholipase C beta 2) | 3 | 2.59 | 21.2 | 9.87 | inactive |
| EEF1E1 (eukaryotic translation elongation factor 1 epsilon 1) | 1 | -1.34 | -6.48 | 2.75 | inactive |
| EEF1E1 (eukaryotic translation elongation factor 1 epsilon 1) | 2 | -0.383 | 0.275 | 3.29 | inactive |
| EEF1E1 (eukaryotic translation elongation factor 1 epsilon 1) | 3 | -0.916 | -3.48 | 3.34 | inactive |
| CYP2S1 (cytochrome P450 family 2 subfamily S member 1) | 1 | 0.267 | 4.84 | 5.57 | inactive |
| CYP2S1 (cytochrome P450 family 2 subfamily S member 1) | 2 | 0.317 | 5.2 | 5.91 | inactive |
| CYP2S1 (cytochrome P450 family 2 subfamily S member 1) | 3 | 1.67 | 14.7 | 12.8 | inactive |
| TMEM182 (transmembrane protein 182) | 1 | -0.467 | -0.32 | 4.05 | inactive |
| TMEM182 (transmembrane protein 182) | 2 | 0.955 | 9.68 | 6.17 | inactive |
| TMEM182 (transmembrane protein 182) | 3 | -0.168 | 1.79 | 3.23 | inactive |
| HMCN1 (hemicentin 1) | 1 | 2.29 | 19.1 | 13.4 | inactive |
| HMCN1 (hemicentin 1) | 2 | -0.258 | 1.15 | 4.61 | inactive |
| HMCN1 (hemicentin 1) | 3 | -1.09 | -4.7 | 3.04 | inactive |

As entered above.
Under “G2 robust z-score”, PLCB2 (phospholipase C beta 2) #3 shows 2.59
Result for TMEM182 (transmembrane protein 182) #3 in “G2 robust z-score”: -0.168
Under “G2 cells, % of GMNN control”, HMCN1 (hemicentin 1) #2 is entered as 1.15
Under “raw share of cells in G2 (%)”, CYP2S1 (cytochrome P450 family 2 subfamily S member 1) #1 shows 5.57

More entries follow:
| target gene | siRNA no. | G2 robust z-score | G2 cells, % of GMNN control | raw share of cells in G2 (%) | Outcome |
| --- | --- | --- | --- | --- | --- |
| SEMA6B (semaphorin 6B) | 1 | 4.18 | 32.4 | 19.8 | inactive |
| SEMA6B (semaphorin 6B) | 2 | -1.33 | -6.37 | 1.78 | inactive |
| SEMA6B (semaphorin 6B) | 3 | 0.476 | 6.32 | 8.97 | inactive |
| TIPRL (TOR signaling pathway regulator) | 1 | 0.153 | 4.04 | 4.5 | inactive |
| TIPRL (TOR signaling pathway regulator) | 2 | -0.875 | -3.19 | 2.48 | inactive |
| TIPRL (TOR signaling pathway regulator) | 3 | -0.415 | 0.0459 | 3.06 | inactive |
| CDX2 (caudal type homeobox 2) | 1 | 0.0118 | 3.05 | 6.05 | inactive |
| CDX2 (caudal type homeobox 2) | 2 | 0.347 | 5.41 | 5.96 | inactive |
| CDX2 (caudal type homeobox 2) | 3 | 1.33 | 12.3 | 9.49 | inactive |
| ORM1 (orosomucoid 1) | 1 | -0.111 | 2.18 | 3.95 | inactive |
| ORM1 (orosomucoid 1) | 2 | 0.892 | 9.24 | 8.5 | inactive |
| ORM1 (orosomucoid 1) | 3 | 7.94 | 58.8 | 27.4 | active |
| GTF2A2 (general transcription factor IIA subunit 2) | 1 | 0.522 | 6.64 | 6.1 | inactive |
| GTF2A2 (general transcription factor IIA subunit 2) | 2 | -0.199 | 1.57 | 5.58 | inactive |
| GTF2A2 (general transcription factor IIA subunit 2) | 3 | 0.651 | 7.55 | 5.85 | inactive |
